{"source": "paper PMC8470279", "about": "“Biosynthesis of the Novel Endogenous 15-Lipoxygenase Metabolites N-13-Hydroxy-octodecadienoyl-ethanolamine and 13-Hydroxy-octodecadienoyl-glycerol by Human Neutrophils and Eosinophils” (Cells, 2021)", "test": "Levels of 13-HODE-G in mouse gastrointestinal tract by LC-MS/MS", "conditions": "mice; ± SEM", "data": [{"smiles": "CCCCC[C@H](O)/C=C/C=C\\CCCCCCCC(=O)OCC(O)CO", "note": "(stereo partly shown) [13-HODE-G, 13-hydroxy-octodecadienoyl-glycerol]", "values": [{"measurement": "Level of 13-HODE-G, Caecum", "value": "997 ± 317 fmol/mg of tissue"}, {"measurement": "Level of 13-HODE-G, Duodenum", "value": "9746 ± 4360 fmol/mg of tissue"}, {"measurement": "Level of 13-HODE-G, Ileum", "value": "1165 ± 185 fmol/mg of tissue"}, {"measurement": "Level of 13-HODE-G, Jejunum", "value": "4810 ± 2692 fmol/mg of tissue"}]}]}
